# Screen size: about 52,000 sequences; about 210 (0.4%) were called active.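 The calls were made as follows: active = gene whose silencing raises cell survival under the drug, median off-target-corrected z-score across its silencing RNAs 2 or more; inactive = the rest.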 The list shows a part of the results.
# Assay: Resistance to Poly (ADP-Ribose) Polymerase inhibitor: Gene Identification via Genome-wide siRNA Screen
# Conditions: mouse BRCA2 R2336H ES cells, olaparib, CellTiter-Glo viability; hits give high values
# Source text: The role of Poly (ADP-Ribose) Polymerase (PARP) proteins in DNA repair has been elegantly utilized for the synthetic lethality-based treatment of BRCA-deficient tumors by PARP inhibitors. PARP inhibitors are now being used for treatment of BRCA-deficient breast and ovarian cancers. […] While several mechanisms of drug resistance have been identified, majority of these tumors develop drug resistance due to unknown causes. To identified novel regulators of chemo-resistance in BRCA2-mutated cells, we performed a genome wide siRNA library screen. We have found ES cells expressing a hypomorphic allele of BRCA2 to be hypersensitive to PAPP inhibitors (such as olaparib). We used ES cells expressing a mutant allele of BRCA2 that has a single amino acid substitution at position 2336 (arginine to histidine, R2336H). The screen was conducted using an Ambion (Thermo) Silencer Mouse Genome siRNA collection. The library targets 17,575 mouse genes with 3 siRNAs per gene. TET2 (E130014J05Rik) was identified as a top candidate.
# Transfections were performed in 384 well plates (Corning 3707). Plates were coated with 0.1% gelatin in H2O overnight at ambient temperature. Gelatin solution was aspirated (BioTek EL406) and siRNAs were printed using a Bravo VPrep liquid handler integrated within a BioCel automation platform (Agilent). Cell viability was measured using CellTiter Glo (Promega). For transfections, […] of serum free media containing Lipofectamine RNAiMax […] was added to wells containing siRNA (0.8pmol). Lipid and siRNA were allowed to complex for 45 min at ambient temperature before addition of 1000 cells in DMEM, 30% FBS to yield final transfection mixtures containing 20 nM siRNA in DMEM, 15% FBS. PARPi (olaparib, AZD2281) was added 48 h post-transfection (500 nM) and viability (CellTiter Glo, Promega) was assayed 72 h later on a PerkinElmer Envision 2104 Multilabel plate reader. Ambion Silencer Select Negative Control #2 was incorporated on all screening plates (16 wells) and the median negative control value on each plate was used for normalization. An siRNA targeting Trp53 was used as a positive control. This control yielded a median protective effect of ~1.9 fold versus negative control throughout the screen. The median absolute deviation (MAD) based z-score was calculated for each siRNA. Genes were then ranked by taking the median value for all siRNAs tested against a given gene. Scores were also adjusted for seed-based off-target effects to help deprioritize likely false positives.
row,Sequence,z-score
1,GGCGAUGUGAAAAUCUUAATT against Xpnpep2,inactive: -0.52
2,GGAGCAUGAUCCUUCAUAATT against 4930511I11Rik,inactive: -2.63
3,GCUAUUCCCAUGACGUGUUTT against Gab1,inactive: -0.752
4,GGUUUUUGAGCCAUAUCCATT against 4632404H22Rik,inactive: 0.625
5,GGAAGAUGUGAAAUUGCUUTT against 5830468K18Rik,inactive: 0.526
6,GGUUGAAGUGGUUUGUCAUTT against 5630401J11Rik,inactive: 1.1
7,GCAGACAGCUUCUCACUAUTT against 4930511J11Rik,inactive: -1.23
8,GUGUCAACCUAAGCUUGGCTT against Tlx3,inactive: -0.341
9,GGGAAGGGAGACAAGCAAATT against Slc2a10,inactive: -0.171
10,GGACGUAUAUCCUUUUAUGTT against 5430416O09Rik,inactive: 1.76
11,CCCGAAGAGCAAAAAAGAUTT against 1110004F10Rik,inactive: -0.637
12,CCAUCAGUAUUCACAACAATT against Usp42,inactive: -0.0551
13,GGUAACAUCUAUAUAUCACTT against Rb1,inactive: 1.66
14,GGCCAAGAUUAAGUUCUUGTT against Il12rb1,inactive: -0.628
15,ACAAGAUUGGGAUCAUCUATT against Rpl23a,inactive: -2.14
16,GGUUUUGUACAAAAGGUCCTT against Ube2e2,inactive: 1.1
17,GCCCAAUCACACCAAGACATT against Doc2b,inactive: 0.68
18,GGCUGUGUCAUCACCAUCUTT against Bach,inactive: -0.217
19,UAGAUGCAUGUUCCUCCUCTT against Olfr1158,inactive: -1.14
20,GCACAACGGUUCGUUGUUATT against 4933427E11Rik,inactive: 0.543
21,GCAUAUUGUGAUAUCAGUGTT against Siglec5,inactive: 0.00668
22,CCUUCAAGUACUUUCUCCGTT against 6720485C15Rik,inactive: 1.43

row,Sequence,z-score
1,GCACUUAUUUAGAAGACUGTT against Commd3,inactive: -0.13
2,GGCUAUCUCCAAUUUCAACTT against Tscot,inactive: 0.0251
3,GGAUUCCUGUUAAAAGUCUTT against Oazin,inactive: -0.781
4,GGUUUGAAAUAUUGUGGAUTT against 4933411G11,inactive: 0.0173
5,GCCAGAGUCAUCUACUUUUTT against 4632413C14Rik,inactive: 0.0748
6,CCUUGAACAUAUAUGUCAUTT against Fem1a,inactive: 2.51
7,GGACUAAUGGUGUUCACUGTT against 1810048J11Rik,inactive: -1.46
8,GCCGUCAUGUCUACAAUAATT against 9030425E11Rik,inactive: -0.22
9,GGUUGUAUAACUCAGAUCUTT against Olfr1311,inactive: 0.265
10,GGCGAAGAAAAUUGAAAGATT against 2700082D03Rik,inactive: 0.489
11,CCUGUUUCUAACAACCACUTT against Isg20,inactive: -1.08
12,GGCAAAAAGCUCAAAAACATT against Fbxo32,inactive: 0.769
13,CCAUGACCUAGGCAGAUAGTT against Tsga8,inactive: -1.82
14,GCUUUCAUUAAGUCAGAUCTT against BC011209,inactive: 1.06
15,GCUAACUUACCCAAAGAAATT against Tnfaip3,inactive: -0.183
16,UCGGAAAGGGCCAUGAUAATT against Bola1,inactive: 0.22
17,CGAGUUUGUAAUGAUGCUATT against Cabp4,inactive: 0.614
18,GAAAAGAGUUUCCACGAGATT against Il19,inactive: 0.268
19,GGGCUGCUCACAAUUUAUATT against 2810439K08Rik,inactive: 0.974
20,GCAGCUUGCUAAAAAUACATT against Lrrc20,inactive: -1
21,GCCCGACAGGAGAUAUUUATT against B230340J04Rik,inactive: -1.19
22,GCACAAUAAACUUGAUAACTT against D5Wsu46e,inactive: -1.43

row,Sequence,z-score
1,GGAUUAUGGAGUCUUAAAGTT against Prdx1,inactive: 0.391
2,GGCAUCAGCCUUCUCAAAGTT against Mmp21,inactive: -1.14
3,GCAAAAUAGCCCAGUAUAATT against Pax6,inactive: -1.14
4,GCUGCAUUACACGUUCUAUTT against 4930590J08Rik,inactive: -0.582
5,GGUAGUUGUUCUAUGUUUUTT against Olfr967,inactive: 0.173
6,GCAGAGUCGAAGUGAGAAGTT against Naca,inactive: -1.68
7,GGAAGCUUCGAGGAUGAUGTT against E130307J07Rik,inactive: -2.6
8,GGUAGCUCUGAAAAAUGACTT against Sfmbt1,inactive: 1.03
9,CCACCAUCUGCUCUAAUCATT against Got2,inactive: 0.262
10,GCCACGAAACAUAGUCACUTT against 1810055G02Rik,inactive: 0.559
11,GCACAACCAUAAUUCCAAATT against Olfr828,inactive: -0.701
12,GGCUAACUUCCCAUUUAGCTT against Hmga1,inactive: 0.0621
13,GGUUGCUCAUUACAGUUAATT against Samd10,inactive: 0.596
14,CGGAUAUCCACAAAUAUCGTT against Atp1b3,inactive: 0.241
15,GCACUUCUACCGGAAAGUUTT against Mad2l1bp,inactive: -1.91
16,GCACAUGCAUAUCUGGAUCTT against Olfr577,inactive: -0.823
17,GGCAGAACCCUUUGAUGACTT against Fos,inactive: 0.413
18,GGUGAUUCGAAAGAACCUGTT against Sh3md1,inactive: -0.372
19,CGAAGGCUUCCCUUUUAUCTT against BC022651,inactive: 0.248
20,GACUCUGUGGGUUCAAAAATT against BC008155,inactive: 2.49
21,GGACGCGGAGAAGAAAGUUTT against Csda,inactive: 0.133

# Given tab-delimited: entries from further up
row	Sequence	z-score
5	GGAAGAUGUGAAAUUGCUUTT against 5830468K18Rik	inactive: 0.526
13	GGUAACAUCUAUAUAUCACTT against Rb1	inactive: 1.66
19	UAGAUGCAUGUUCCUCCUCTT against Olfr1158	inactive: -1.14
15	GCUAACUUACCCAAAGAAATT against Tnfaip3	inactive: -0.183

# — PubChem BioAssay AID1347423 (Functional Genomics Laboratory (NCATS/FGL), 2020)
